Test results: PubChem BioAssay AID2284326 (EPA ToxCast)
This list was built around the results that the source calls inconclusive (neither active nor inactive); the mix of calls is not that of the screen. Rule for the calls: active = hit-call score of the fitted dose curve at least 0.9, where 1 is the maximum; inconclusive = response in the unintended direction; inactive = score below 0.9. Potencies beside an inconclusive call are fits to weak or partial responses and may not hold up.

System: TPO (gene 7173)
Assay: CCTE_GLTED_hTPO: CCTE's human Thyroperoxidase (hTPO) Inhibition Assay, Great Lakes Toxicology and Ecology Division (GLTED) Lab
Experimental: CCTE_GLTED_hTPO is a cell-free, single-readout assay designed to test the inhibitory activity of chemicals toward human thyroperoxidase (TPO) protein. Uninhibited enzyme converts Amplex UltraRed to a fluorescent product. Measurements were taken 0.5 hour after chemical dosing in a 96-well plate. CCTE_GLTED_hTPO is the assay component measured from the CCTE_GLTED_hTPO assay. It is designed to make measurements of enzyme activity, a form of enzyme reporter, as detected with […] by Fluorescence technology.Data from the assay component CCTE_GLTED_hTPO was analyzed at the assay endpoint CCTE_GLTED_hTPO in the positive analysis fitting direction relative to DMSO as the negative control and baseline of activity. Using a type of enzyme reporter (the Amplex UltraRed assay), loss-of-signal activity can be used to understand decreased peroxidase activity in the presence of excess hydrogen peroxidase. […]
Xenopus deiodinase type 3 (hDIO3) assay, developed at Great Lakes Toxicology and Ecology Division (GLTED) within the EPA's Center for Computational Toxicology and Exposure (CCTE), is designed to test the chemicals' ability to inhibit DIO3. […] Assay is based on iodide release measured by the Sandell-Kolthoff method and is run in 96-well plate format with assay plates run in triplicate (n=3). […]

O=S(=O)(O)C(F)(F)C(F)(F)C(F)(F)C(F)(F)C(F)(F)C(F)(F)C(F)(F)C(F)(F)F
AC50: inconclusive: 2.83 pM
